For at least one entry, the source does not settle the construct or the ends of the probe. At least one verdict was read from the data and is not stated in words by the source.
Molecular target: alpha-fetoprotein (AFP) (UniProt P02771)
Experiment: fluorescence sandwich aptasensor (magnetic capture)
Settings: AIEgen-labeled reporter aptamer, AFP captured by aptamer 1; 5'-amino; PBS 10 mM, pH 7.4 (aptamer 1 immobilization); room temperature, 30 min AFP then 30 min aptamer 2; 15 nM aptamer 1, 8 ug/mL AIEgen aptamer 2, 10 ug/mL Fe3O4@MPTMS@AuNPs; label: AIEgen polystyrene nanosphere; single-stranded DNA

Sequences of proteins named here, by UniProt entry; tags and fusion partners are left off. Residues count along the entry.
UniProt P02771, 19-609: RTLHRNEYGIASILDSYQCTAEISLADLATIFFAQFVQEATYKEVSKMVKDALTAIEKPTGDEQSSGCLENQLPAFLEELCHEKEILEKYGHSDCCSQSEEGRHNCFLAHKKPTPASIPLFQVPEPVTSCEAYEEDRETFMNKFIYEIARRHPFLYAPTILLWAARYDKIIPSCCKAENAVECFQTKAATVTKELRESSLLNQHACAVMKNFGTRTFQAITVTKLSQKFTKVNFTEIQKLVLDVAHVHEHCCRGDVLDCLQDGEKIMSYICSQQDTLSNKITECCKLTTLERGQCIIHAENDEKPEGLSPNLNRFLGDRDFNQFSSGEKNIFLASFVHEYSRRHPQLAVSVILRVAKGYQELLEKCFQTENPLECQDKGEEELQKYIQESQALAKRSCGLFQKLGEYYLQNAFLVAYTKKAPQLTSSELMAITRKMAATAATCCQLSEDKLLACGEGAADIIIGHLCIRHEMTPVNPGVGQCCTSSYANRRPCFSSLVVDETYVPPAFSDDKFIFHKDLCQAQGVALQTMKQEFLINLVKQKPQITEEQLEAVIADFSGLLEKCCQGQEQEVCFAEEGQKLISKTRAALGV

## GTGACGCTCCTAACGCTGACTCAGGTGCAGTTCTCGACTCGGTCTTGATGTGGGTCCTGTCCGTCCGAACCAATC [Aptamer 2 (AFP aptamer, 5'-NH2)]
  binding result: binds
